Measurements as given in PubChem BioAssay AID743255 (National Center for Advancing Translational Sciences (NCATS), 2014).
Screen size: about 390,000 compounds; about 910 (0.23%) were called active. Inconclusive results, whose numbers are uncertain, are shown with a selection of clear calls. Calls follow the shape of the dose curve; as a rule, active = well fitted inhibition curve with a large enough effect; inconclusive = small, poorly fitted or top-dose-only effect; inactive = no such curve, though single readings can be large or run the other way. Where the call is inconclusive, the potency comes from a doubtful curve fit.

Amino acid sequences for entries named in this document (tags omitted). A change or cut given only in a name is not applied to a line headed by its entry.
UniProt O94782: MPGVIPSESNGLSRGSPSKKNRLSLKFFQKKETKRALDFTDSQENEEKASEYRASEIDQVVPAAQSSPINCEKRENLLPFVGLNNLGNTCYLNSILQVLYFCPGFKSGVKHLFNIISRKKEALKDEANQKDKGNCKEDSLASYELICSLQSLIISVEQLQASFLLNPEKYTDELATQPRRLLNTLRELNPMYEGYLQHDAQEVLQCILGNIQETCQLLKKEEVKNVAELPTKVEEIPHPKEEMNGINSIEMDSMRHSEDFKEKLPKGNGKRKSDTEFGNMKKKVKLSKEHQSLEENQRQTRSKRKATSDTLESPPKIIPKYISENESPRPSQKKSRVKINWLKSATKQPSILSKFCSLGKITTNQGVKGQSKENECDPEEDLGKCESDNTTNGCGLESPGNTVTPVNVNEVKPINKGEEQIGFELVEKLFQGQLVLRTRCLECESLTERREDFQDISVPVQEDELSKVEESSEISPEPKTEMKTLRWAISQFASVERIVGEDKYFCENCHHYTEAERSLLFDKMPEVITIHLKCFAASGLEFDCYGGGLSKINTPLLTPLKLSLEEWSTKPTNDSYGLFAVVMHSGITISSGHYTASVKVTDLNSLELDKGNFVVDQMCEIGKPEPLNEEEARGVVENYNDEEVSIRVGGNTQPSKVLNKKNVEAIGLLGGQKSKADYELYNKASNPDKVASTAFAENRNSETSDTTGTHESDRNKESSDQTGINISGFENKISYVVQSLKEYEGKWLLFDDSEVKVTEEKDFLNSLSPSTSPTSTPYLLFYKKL

What follows are molecules tested against Ubiquitin carboxyl-terminal hydrolase 1 (Homo sapiens) (UniProt O94782) (assay: Inhibitors of USP1/UAF1: Primary Screen). Settings: recombinant USP1/UAF1, Ub-Rhodamine cleavage fluorescence; series mostly up to 57.1 µM.
How it was run: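 Step one: compound is pinned into 1nM USP1/UAF1 in HEPES pH 7.8 buffer with TCEP. Step two: 15 min room-temperature incubation. Step three: Ub-Rho (150nM final) starts cleavage, tracked by fluorescence over six one-minute reads.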
Also: nearly all actives have a fitted effect of over 60% in size.
Potency is read from the fitted curve at half-maximal effect.

Row | Structure (SMILES) | Potency
1 | COc1cc(CN(C2CC2)S(=O)(=O)c2ccccc2Br)cc(OC)c1 | inconclusive: 17.8 µM [inhibitor, partial curve]
2 | CCC(=O)NCCc1cc2ccc(C)c(C)c2[nH]c1=O | inconclusive: 0.141 µM [inhibitor, full curve, poor fit]
3 | C[C@H](CO)N1C[C@H](C)[C@H](CN(C)C(=O)Nc2ccc(C(F)(F)F)cc2)Oc2ncc(Br)cc2C1=O | inconclusive: 5.01 µM [inhibitor, partial curve, poor fit]
4 | CCN(CC)C(=O)[C@H]1C[C@H](CC(=O)NCc2ccco2)C(=O)N2CCc3c([nH]c4cc(-c5ccco5)ccc34)[C@]12C | inconclusive: 35.5 µM [inhibitor, partial curve, poor fit]
5 | COC(=O)c1sccc1-n1cccc1C(=O)C(=O)N1CCCC1 | inactive
6 | CCOc1ccc(/C=C/C(=O)Oc2ccc(OC)cc2)cc1 | inactive
7 | COc1ccc(S(=O)(=O)Cc2ccc(C(=O)N3CCN(c4cccc(C)c4C)CC3)o2)cc1 | inconclusive: 0.708 µM [inhibitor, full curve]
8 | CCCCn1c(=S)[nH]c2c(=O)n(C)c(=O)n(C)c21 | inactive
9 | COc1ccc(NC(=O)Nc2cc3oc4ccccc4c3cc2OC)cc1 | inactive
10 | O=[N+]([O-])c1cc([N+](=O)[O-])c2c(=Nc3ccccc3)n(-c3ccccc3)n(O)c2c1 | inconclusive: 39.8 µM [inhibitor, partial curve]
11 | COc1ccc2c(=O)c3c(=O)n(CCc4ccccc4)c(C)nc3oc2c1 | inconclusive: 2.51 µM [inhibitor, full curve, poor fit]
12 | O=C(NCc1ccco1)c1ccc2ccccc2c1 | inactive
13 | O=C(CCl)N(O)c1ccc(C=Cc2ccccc2)cc1 | inactive
14 | C=CCn1c(O)c(CN2CCOCC2)c(C)c(C#N)c1=O | inconclusive: 31.6 µM [inhibitor, partial curve]
15 | COc1ccc(-c2ccc(CNCCCSc3nnnn3C)o2)cc1Cl | inactive
16 | CC[C@H](C)[C@@H](C(=O)NCCCCCCCCCCC(=O)N1CCNCC1)n1cc(CCCCN=C(N)N)nn1 | inconclusive: 44.7 µM [inhibitor, partial curve, poor fit]
17 | NS(=O)(=O)c1ccc(-c2ccc(/C=C3\NC(=S)NC3=O)o2)cc1 | inconclusive: 50.1 µM [inhibitor, partial curve, poor fit]
18 | COCCSc1ccccc1C(=O)Nc1ccc(Cl)cc1 | inconclusive: 5.62 µM [inhibitor, partial curve, poor fit]
19 | CCCCc1cc2c(cn1)=C(OC(=O)c1cnc3ccccc3n1)C(C)(OC(=O)CC)C(=O)C=2 (stereo not drawn) | inconclusive: 39.8 µM [inhibitor, partial curve]
20 | CCc1nc2ccc(C(=O)N3CCN(c4cc(C)ccc4C)CC3)cc2nc1CC | inconclusive: 44.7 µM [inhibitor, partial curve, poor fit]
21 | Cc1onc(-c2ccccc2)c1C(=O)NC(C)C | inconclusive: 2.51 µM [inhibitor, partial curve, poor fit]

Row | Structure (SMILES) | Potency
22 | O=C(CSc1nnc(-c2c[nH]c3ccccc23)o1)N(Cc1ccccc1)c1ccc(F)cc1 | inconclusive: 25.1 µM [inhibitor, single point]
23 | Cc1ccc(N(C)S(=O)(=O)c2ccc(-c3coc(C)n3)cc2)cc1 | inactive
24 | COc1ccc(OC)c(CN2CCN(Cc3ccc(OC)c(OC)c3OC)CC2)c1 | inconclusive: 0.282 µM [inhibitor, full curve, poor fit]
25 | CSc1ncc(Cl)c(C(=O)C(C#N)c2nc3c(C)cc(C)cc3c(=O)[nH]2)n1 (stereo not drawn) | inconclusive: 251 µM [inhibitor, partial curve, poor fit]
26 | CN(CC(=O)Nc1ccccc1Cl)C(=O)COC(=O)c1ccc(Cl)nc1 | inactive
27 | COCCC1CCCCN1C(=O)c1ccc(OC2CCN(C(C)=O)CC2)c(OC)c1 (stereo not drawn) | inconclusive: 6.31 µM [inhibitor, single point]
28 | COc1ccc(-n2ccnc2CN2CCCC(CO)(Cc3cccc(OC)c3)C2)cc1 (stereo not drawn) | inactive
29 | O=C(N/N=C/C=C/c1ccc([N+](=O)[O-])cc1)C1COc2ccccc2O1 (stereo not drawn) | inconclusive: 1 µM [inhibitor, full curve, poor fit]
30 | COc1cc([N+](=O)[O-])ccc1NC(=O)N1CCC2(CC1)Nc1ccccc1-n1cccc12 | inconclusive: 0.0794 µM [inhibitor, full curve, poor fit]
31 | N/C(=C\C(=O)c1cc(Cl)ccc1O)C(Cl)(Cl)Cl | inconclusive: 22.4 µM [inhibitor, partial curve]
32 | COc1ccc(-c2cc(C(F)(F)F)n3ncc(-c4ccccc4)c3n2)cc1 | inactive
33 | Cc1ccc(C(=O)NC(=S)N(C)C2CCCCC2)cc1 | inactive
34 | CCOC(=O)C1=C(C)n2c(s/c(=C/c3cccc([N+](=O)[O-])c3)c2=O)=NC1c1ccc(O)c(OC)c1 (stereo not drawn) | inactive
35 | Cc1c(C(=O)Nc2ccc(F)cc2)oc2ccc(S(=O)(=O)N3CCCCCC3)cc12 | inconclusive: 3.16 µM [inhibitor, partial curve]
36 | COc1ccccc1Nc1nc(N)nc(N)c1S(=O)(=O)c1ccccc1 | inconclusive: 158 µM [inhibitor, partial curve, poor fit]
37 | CN(C)CCCN(C(=O)c1cc(-c2cccs2)nc2ccccc12)c1nc2ccc(F)cc2s1 | inactive
38 | CCOC(=O)c1ccc(-n2c(CN3CCC(O)CC3)nc3ccc([N+](=O)[O-])cc3c2=O)cc1 | inconclusive: 50.1 µM [inhibitor, partial curve, poor fit]
39 | O=C(Nc1ccc(Cl)c(C(F)(F)F)c1)c1nc2ccccc2nc1N1CCCCC1 | inconclusive: 17.8 µM [inhibitor, partial curve]
40 | O=C1c2ccccc2C(=O)N1Cc1ccco1 | inactive
41 | COc1cccc(NC(=O)/C(C#N)=C/c2c(C)n(Cc3ccccc3)c3ccccc23)c1 | inconclusive: 31.6 µM [inhibitor, partial curve]
42 | COc1ccc(N=C2NC(=O)S/C2=C\c2ccc(N(C)C)cc2)cc1 | active: 25.1 µM

Retrieved one by one from above (2):
Row | Structure (SMILES) | Potency
28 | COc1ccc(-n2ccnc2CN2CCCC(CO)(Cc3cccc(OC)c3)C2)cc1 (stereo not drawn) | inactive
30 | COc1cc([N+](=O)[O-])ccc1NC(=O)N1CCC2(CC1)Nc1ccccc1-n1cccc12 | inconclusive: 0.0794 µM [inhibitor, full curve, poor fit]

Additional results follow.

Row | Structure (SMILES) | Potency
43 | CCCc1cc(=O)[nH]c2nnc(SCC(=O)Nc3ccc4c(c3)OCCO4)n12 | inconclusive: 0.355 µM [inhibitor, full curve, poor fit]
44 | O=C1NN(c2ccc(F)cc2)C(=O)/C1=C/c1cccs1 | inactive
45 | COc1cccc(NC(=O)c2cc(Cl)nnc2Cl)c1 | inactive
46 | O=C(CN1CCc2cc3c(cc2C1)OCCCO3)Nc1cccc([N+](=O)[O-])c1 | inconclusive: 28.2 µM [inhibitor, partial curve]
47 | COC(=O)c1nc2cc(C)ccn2c1F | inconclusive: 44.7 µM [inhibitor, partial curve, poor fit]
48 | NC(CSC(c1ccccc1)(c1ccccc1)c1ccc2c(c1)OCO2)C(=O)O (stereo not drawn) | inconclusive: 1.12 µM [inhibitor, full curve]
49 | CCN(CCN(C)C)C(=O)c1ccc2c(c1NCCO)C(=O)c1ccccc1C2=O | inconclusive: 10 µM [inhibitor, single point]
50 | COc1ccc(N(Cc2cc3ccc(C)cc3[nH]c2=O)S(=O)(=O)c2ccccc2)cc1 | inconclusive: 1.78 µM [inhibitor, full curve, poor fit]
51 | O=C(Nc1ccc(OCC(F)(F)C(F)F)c(C(F)(F)F)c1)c1ccccc1O | inconclusive: 35.5 µM [inhibitor, partial curve]
52 | COc1ccc2[nH]c3c4c(ccc3c2c1)C(=O)C=CC4=O | inconclusive: 28.2 µM [inhibitor, partial curve]
53 | O=C(CCS(=O)(=O)Cc1ccccc1F)N1CCc2ccccc2C1 | inconclusive: 31.6 µM [inhibitor, partial curve]
54 | COc1cccc(NC(=S)N(CCc2c(C)[nH]c3ccccc23)Cc2cccs2)c1 | inconclusive: 1 µM [inhibitor, full curve, poor fit]
55 | CC(OC(=O)/C(C#N)=C/c1ccc(N(C)C)cc1)C(=O)N(C)Cc1ccccc1 (stereo not drawn) | inconclusive: 31.6 µM [inhibitor, partial curve, poor fit]
56 | C/C(=N\NC(=S)Nc1ccc(C)c(C)c1)c1ccc(N2CCOCC2)cc1 | inconclusive: 14.1 µM [inhibitor, partial curve, poor fit]
57 | CCCCOc1ccc(CNC(=O)c2cnc3sc(N4CCCCCC4)nn3c2=O)cc1 | inconclusive: 0.631 µM [inhibitor, full curve, poor fit]
58 | O=C(NC(=S)N(CCCCO)C1CCCCC1)c1sc2ccccc2c1Cl | inconclusive: 0.794 µM [inhibitor, full curve, poor fit]
59 | O=[n+]1c2c(n([O-])c3cc(F)c(N4CCCC4)cc31)CCCC2 | inconclusive: 31.6 µM [inhibitor, partial curve, poor fit]
60 | CCN1CCN(c2nc3c(S(=O)(=O)c4ccc(C)cc4)nnn3c3ccsc23)CC1 | inconclusive: 112 µM [inhibitor, partial curve]
61 | Cc1cc(C)n(CCc2nc(-c3cccs3)cs2)n1 | inactive
62 | Cc1c(C(=O)NC(=S)Nc2ccccc2N2CCCC2)cccc1[N+](=O)[O-] | inconclusive: 35.5 µM [inhibitor, partial curve]
63 | COc1ccc([C@@H]2[C@@H]3C(=O)N(C(C)(C)C)C(=O)[C@@H]3[C@]3(Cc4ccccc4)C(=O)N(c4cccc(F)c4)C(=O)N23)cc1 | inconclusive: 0.251 µM [inhibitor, full curve, poor fit]
